Measured data: PubChem BioAssay AID1159578 (Peter MacCallum Cancer Centre, 2015)

Assay: 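siRNA pools altering how lymphatic endothelial cells close a scratch wound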 (primary screen)
System: human lymphatic endothelial cells
Reagents: siRNA pool against human genes, 40 nM
Duration: 48 h after transfection
Detection: 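Cells stained with dye and imaged after a scratch; covered wound area and nuclei counted, duplicates averaged, migration set against mock wells and turned into a robust z-score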
Scale: migration robust z-score: higher = faster migration into the scratch; migration relative to mock: higher = more scratch area covered than mock; nuclei per well: higher = more cells in the well
Rule for the call: 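Migration changed when robust z exceeds 2 or falls below -2 and mean nuclei number is at least 3300; otherwise not called changed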
Meaning of the calls: active = migration changed; inactive = no migration change, or too few cells
In all, the deposit lists about 18,000 reagents; below is a part drawn at random. Of all reagents, about 1,030 (5.7%) were called active. 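Inactive calls also include pools with fewer than 3300 nuclei, whose migration was not assessed.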 The raw values are shown without normalisation. Reagent sequences are not shown.

gene symbol | migration robust z-score | migration class with cell-count check | migration relative to mock | nuclei per well, duplicate mean | Outcome
TTLL3 (tubulin tyrosine ligase like 3) | -3.01 | migration z below -2; enough cells | 0.22 | 5011 | active
DAZ1 (deleted in azoospermia 1) | 0.1 | migration z between -2 and 2; enough cells | 0.82 | 4860 | inactive
SSX2IP (SSX family member 2 interacting protein) | -0.12 | migration z between -2 and 2; enough cells | 0.86 | 4572 | inactive
RDH5 (retinol dehydrogenase 5) | 0.08 | migration z between -2 and 2; enough cells | 0.9 | 8516 | inactive
CNTNAP5 (contactin associated protein family member 5) | 0.5 | migration z between -2 and 2; enough cells | 1.02 | 5934 | inactive
UBASH3B (ubiquitin associated and SH3 domain containing B) | 0.54 | migration z between -2 and 2; enough cells | 0.91 | 4901 | inactive
ZNF449 (zinc finger protein 449) | -0.6 | migration z between -2 and 2; enough cells | 0.73 | 3626 | inactive
KIAA0319 | 0.67 | migration z between -2 and 2; enough cells | 1.06 | 5596 | inactive
SNAP47 (synaptosome associated protein 47) | -1.18 | migration z between -2 and 2; enough cells | 0.58 | 5834 | inactive

Not a retest: 2 of the entries above.
gene symbol | migration robust z-score | migration class with cell-count check | migration relative to mock | nuclei per well, duplicate mean | Outcome
CNTNAP5 (contactin associated protein family member 5) | 0.5 | migration z between -2 and 2; enough cells | 1.02 | 5934 | inactive
UBASH3B (ubiquitin associated and SH3 domain containing B) | 0.54 | migration z between -2 and 2; enough cells | 0.91 | 4901 | inactive

The list goes on:
gene symbol | migration robust z-score | migration class with cell-count check | migration relative to mock | nuclei per well, duplicate mean | Outcome
ANGPTL3 (angiopoietin like 3) | 0.11 | migration z between -2 and 2; enough cells | 0.82 | 6098 | inactive
TUBGCP5 (tubulin gamma complex component 5) | 1.13 | migration z between -2 and 2; enough cells | 1.18 | 5185 | inactive
SLC35D1 | 1.04 | migration z between -2 and 2; enough cells | 1 | 5228 | inactive
NT5M (5',3'-nucleotidase, mitochondrial) | -0.94 | migration z between -2 and 2; enough cells | 0.62 | 5182 | inactive
UGT3A1 (UDP glycosyltransferase family 3 member A1) | -2.21 | migration z below -2; enough cells | 0.38 | 3779 | active
KCTD20 (potassium channel tetramerization domain containing 20) | -0.26 | migration z between -2 and 2; enough cells | 0.76 | 3613 | inactive
LINC02145 (long independently transcribed non-coding RNA 2145) | 0.02 | migration z between -2 and 2; enough cells | 0.89 | 5190 | inactive
TBCA (tubulin folding cofactor A) | -0.8 | migration z between -2 and 2; enough cells | 0.68 | 5684 | inactive
MGARP (mitochondria localized glutamic acid rich protein) | 0.54 | migration z between -2 and 2; enough cells | 1.02 | 6388 | inactive
COPE (coat protein complex I subunit epsilon) | -0.32 | migration z between -2 and 2; enough cells | 0.8 | 5748 | inactive
DNAJA4 (DnaJ heat shock protein family (Hsp40) member A4) | 0.54 | migration z between -2 and 2; enough cells | 0.91 | 7354 | inactive
ARMCX3 (armadillo repeat containing X-linked 3) | -0.72 | migration z between -2 and 2; enough cells | 0.7 | 4712 | inactive
HMOX2 (heme oxygenase 2) | 0 | migration z between -2 and 2; enough cells | 0.8 | 5898 | inactive
ROR1 (ROR family WNT receptor 1) | -0.24 | migration z between -2 and 2; enough cells | 0.76 | 4974 | inactive
